Values from PubChem BioAssay AID1259405 (NCATS, 2018)
In all, the deposit lists about 50,000 reagents; below is a random part of them. About 4,000 of them (8%) count as active. 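Mouse siRNA library applied to hamster cells; one well for each siRNA.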

- Assay: 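Mouse-designed siRNAs used to find CHO productivity engineering targets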 (primary screen)
- Cell system: Chinese hamster CHO-K1 ovary cells with stable secreted eGFP expression
- Reagent: single siRNA against mouse genes, 0.8 pmol siRNA per well (2 µl of 400 nM stock)
- Timing: 3 days
- Measured: 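Per-well intracellular GFP measured by laser scanning cytometry, plus viability from ATP luminescence, each relative to plate median of non-targeting control wells, in %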
- Reading the numbers: GFP, % of control: higher = more GFP per well, higher productivity; viability (ATP), % of control: higher = more viable cells (more ATP)
- Call rule: 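Called active when intracellular GFP, relative to negative control, is at or above 120%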

Or8g20 (olfactory receptor family 8 subfamily G member 20) [SID363554116]
- GFP, % of control: 35.6
- viability (ATP), % of control: 46.5
- activity call: inactive

Or8g20 (olfactory receptor family 8 subfamily G member 20) [SID363567563]
- GFP, % of control: 75.5
- viability (ATP), % of control: 65.2
- activity call: inactive

Or8g20 (olfactory receptor family 8 subfamily G member 20) [SID363584920]
- GFP, % of control: 77.8
- viability (ATP), % of control: 117
- activity call: inactive

Selenoo (selenoprotein O) [SID363569091]
- GFP, % of control: 92.2
- viability (ATP), % of control: 43.5
- activity call: inactive

Selenoo (selenoprotein O) [SID363583523]
- GFP, % of control: 96.2
- viability (ATP), % of control: 78.8
- activity call: inactive

Lyzl4 (lysozyme-like 4) [SID363545504]
- GFP, % of control: 104
- viability (ATP), % of control: 77.7
- activity call: inactive

Lyzl4 (lysozyme-like 4) [SID363549017]
- GFP, % of control: 91.6
- viability (ATP), % of control: 87.1
- activity call: inactive

Lyzl4 (lysozyme-like 4) [SID363562823]
- GFP, % of control: 62
- viability (ATP), % of control: 64.2
- activity call: inactive

F830045P16Rik (RIKEN cDNA F830045P16 gene) [SID363541556]
- GFP, % of control: 47.8
- viability (ATP), % of control: 35.6
- activity call: inactive

F830045P16Rik (RIKEN cDNA F830045P16 gene) [SID363556183]
- GFP, % of control: 55.9
- viability (ATP), % of control: 82.1
- activity call: inactive

F830045P16Rik (RIKEN cDNA F830045P16 gene) [SID363566472]
- GFP, % of control: 39.4
- viability (ATP), % of control: 72.1
- activity call: inactive

Rpl39 (ribosomal protein L39) [SID363554010]
- GFP, % of control: 60.5
- viability (ATP), % of control: 51.3
- activity call: inactive

Rpl39 (ribosomal protein L39) [SID363561967]
- GFP, % of control: 35.2
- viability (ATP), % of control: 13.2
- activity call: inactive

Rpl39 (ribosomal protein L39) [SID363565705]
- GFP, % of control: 66.2
- viability (ATP), % of control: 54.4
- activity call: inactive

E4f1 (E4F transcription factor 1) [SID363573410]
- GFP, % of control: 65.1
- viability (ATP), % of control: 83
- activity call: inactive

E4f1 (E4F transcription factor 1) [SID363588649]
- GFP, % of control: 91.1
- viability (ATP), % of control: 76.3
- activity call: inactive

Rrp9 [SID363555145]
- GFP, % of control: 88.4
- viability (ATP), % of control: 88.6
- activity call: inactive

Rrp9 [SID363568592]
- GFP, % of control: 153
- viability (ATP), % of control: 66.5
- activity call: active

Rrp9 [SID363586651]
- GFP, % of control: 61.2
- viability (ATP), % of control: 80.7
- activity call: inactive

Slc14a2 [SID363574642]
- GFP, % of control: 115
- viability (ATP), % of control: 88.6
- activity call: inactive

Slc14a2 [SID363575698]
- GFP, % of control: 107
- viability (ATP), % of control: 60.9
- activity call: inactive

Slc14a2 [SID363580274]
- GFP, % of control: 75.9
- viability (ATP), % of control: 65.7
- activity call: inactive

The list goes on; the last 3 above are carried over.
Slc14a2 [SID363574642]
- GFP, % of control: 115
- viability (ATP), % of control: 88.6
- activity call: inactive

Slc14a2 [SID363575698]
- GFP, % of control: 107
- viability (ATP), % of control: 60.9
- activity call: inactive

Slc14a2 [SID363580274]
- GFP, % of control: 75.9
- viability (ATP), % of control: 65.7
- activity call: inactive

Cables2 (CDK5 and Abl enzyme substrate 2) [SID363550130]
- GFP, % of control: 92.6
- viability (ATP), % of control: 80.4
- activity call: inactive

Cables2 (CDK5 and Abl enzyme substrate 2) [SID363564639]
- GFP, % of control: 108
- viability (ATP), % of control: 95.5
- activity call: inactive

Cables2 (CDK5 and Abl enzyme substrate 2) [SID363588184]
- GFP, % of control: 82
- viability (ATP), % of control: 96.6
- activity call: inactive

Or8c16 (olfactory receptor family 8 subfamily C member 16) [SID363554454]
- GFP, % of control: 49.4
- viability (ATP), % of control: 40.5
- activity call: inactive

Or8c16 (olfactory receptor family 8 subfamily C member 16) [SID363567901]
- GFP, % of control: 165
- viability (ATP), % of control: 99.4
- activity call: active

Or8c16 (olfactory receptor family 8 subfamily C member 16) [SID363585960]
- GFP, % of control: 104
- viability (ATP), % of control: 90.4
- activity call: inactive

Bcat2 (branched chain aminotransferase 2, mitochondrial) [SID363570690]
- GFP, % of control: 77.5
- viability (ATP), % of control: 97.1
- activity call: inactive

Bcat2 (branched chain aminotransferase 2, mitochondrial) [SID363579490]
- GFP, % of control: 204
- viability (ATP), % of control: 121
- activity call: active

Bcat2 (branched chain aminotransferase 2, mitochondrial) [SID363583362]
- GFP, % of control: 104
- viability (ATP), % of control: 111
- activity call: inactive

Mrpl42 (mitochondrial ribosomal protein L42) [SID363544013]
- GFP, % of control: 63.4
- viability (ATP), % of control: 74.1
- activity call: inactive

Mrpl42 (mitochondrial ribosomal protein L42) [SID363551749]
- GFP, % of control: 28
- viability (ATP), % of control: 13.6
- activity call: inactive

Mrpl42 (mitochondrial ribosomal protein L42) [SID363559354]
- GFP, % of control: 65
- viability (ATP), % of control: 78.6
- activity call: inactive

Trp53i11 (transformation related protein 53 inducible protein 11) [SID363556295]
- GFP, % of control: 118
- viability (ATP), % of control: 72.3
- activity call: inactive

Trp53i11 (transformation related protein 53 inducible protein 11) [SID363586745]
- GFP, % of control: 109
- viability (ATP), % of control: 99
- activity call: inactive

Trp53i11 (transformation related protein 53 inducible protein 11) [SID363588853]
- GFP, % of control: 145
- viability (ATP), % of control: 83.8
- activity call: active

Apobec2 [SID363569893]
- GFP, % of control: 99.8
- viability (ATP), % of control: 104
- activity call: inactive

Apobec2 [SID363576933]
- GFP, % of control: 81.4
- viability (ATP), % of control: 111
- activity call: inactive

Apobec2 [SID363578341]
- GFP, % of control: 182
- viability (ATP), % of control: 84.7
- activity call: active
